Measured values as given in patent publication US20250144067A1, “PERSONALIZED STARVATION THERAPY FOR CANCER” (Faeth Therapeutics, Inc., priority 2021, published 2025).
At least one structure is not confirmed: it was looked up by name or label, or the drawing left a doubt.

Assays:
H292 cells = assay: Drug validation, four media conditions; assay type: cell-based, human; settings: cholesterol-free medium+simvastatin compared to the other media conditions
Description: (§1) A series of experiments were designed to assess the effect of cholesterol depletion and statin treatment on the anti-cancer effect of drugs identified in the FDA drug screens. Cancer cells were grown in media containing cholesterol and cholesterol-free media in the presence or absence of simvastatin. The effect of the drug identified in the FDA drug screens on cancer cell growth was measured.
(§2) […]. Medium 1 was ‘complete medium’ containing all essential nutrients, including cholesterol. Medium 2 was cholesterol-free medium. Medium 3 was cholesterol-free medium supplemented with simvastatin 40 nM. Medium 4 was ‘complete medium’ containing all essential nutrients, including cholesterol, supplemented with simvastatin at the IC30 concentration for each cell line.
(§3) On Day 5, cell growth was measured by absorbance or fluorescence. For absorbance growth measurements, spent media was discarded, and wells were stained with a crystal violet staining solution, washed, and dried. 100 μL of 10% acetic acid was added to each well to release the crystal violet taken up by the cells. Plates were read using a Biotek Powerwave plate reader to determine the absorbance of the crystal violet released as an indicator of cell growth at a wavelength of 595 nm. For fluorescence growth measurements, 100 μL of a resazurin solution was added to each well and the plate incubated at 37° C. for four hours. Plates were read using a Biotek Powerwave plate reader to determine the fluorescence of reosurfin as an indicator of cell growth at a wavelength of 590 nm.
(§4) Growth curves showing absorbance of crystal violet at 595 nm or fluorescene of reosurfin at 590 nm were plotted from test wells against the logarithmic concentration of the validation drug. FIG. 9A-9C show growth of cancer cell lines in the four media conditions subjected to increasing doses of neticonazole. FIG. 10A-10D show growth of cancer cell lines in the four media conditions subjected to increasing doses of cepharanthine. FIG. 11A-11B show growth of cancer cell lines in the four media conditions subjected to increasing doses of alverine citrate. FIG. 12A-12B show growth of cancer cell lines in the four media conditions subjected to increasing doses of berbamine. FIG. 13A-13C show growth of cancer cell lines in the four media conditions subjected to increasing doses of pitolisant. FIG. 14A-14G show growth of cancer cell lines in the four media conditions subjected to increasing doses of avapritinib. FIG. 15A-15D show growth of cancer cell lines in the four media conditions subjected to increasing doses of toremifene. FIG. 16A-16C show growth of cancer cell lines in the four media conditions subjected to increasing doses of isavuconazole.

HCC827 cells = assay: Drug validation, four media conditions; assay type: cell-based, human; settings: cholesterol-free medium+simvastatin compared to the other media conditions
Description: as §1, §2, §3, §4

PC9 cells = assay: Drug validation, four media conditions; assay type: cell-based, human; settings: cholesterol-free medium+simvastatin compared to the other media conditions
Description: as §1, §2, §3, §4

SW480 cells = assay: Drug validation, four media conditions; assay type: cell-based, human; settings: cholesterol-free medium+simvastatin compared to the other media conditions
Description: as §1, §2, §3, §4

PSN1 cells = assay: Drug validation, four media conditions; assay type: cell-based, human; settings: cholesterol-free medium+simvastatin compared to the other media conditions
Description: as §1, §2, §3, §4

PC9 lung cancer tumors = assay: Anti-tumour activity with low cholesterol diet in PC9 bearing mice; assay type: in vivo, C.B-17 SCID mice; settings: Low Chol Diet + simvastatin 20 mg/kg daily oral gavage relative to Low Chol Diet + vehicle
Description: A series of in vivo experiments were designed to assess the effect of cholesterol depletion on cancer cell growth. The added role of statin treatment and additional therapeutic agents was studied by dosing mice and assessing tumor growth over a defined time period.
Immunodeficient C.B-17 SCID (C.B-Igh-1^b/IcrTac-Prkdc^scid) mice were subcutaneously injected with human lung cancer PC9 cells to initiate tumor development and randomly assigned into one of three experimental groups (n=6 per group): “Low Chol Diet” containing less than 0.05% dietary cholesterol and vehicle, Low Chol Diet and simvastatin 20 mg/kg, and Low Chol Diet and simvastatin 10 mg/kg in combination with toremifene 2 mg/kg. Once the tumor volume reached ˜200 mm^3, treatment was commenced with vehicle, simvastatin, and toremifene administered daily by oral gavage. Treatment continued for 28 days or until the tumor volume exceeded 2000 mm^3. Throughout the course of the study, tumor volume was measured twice per week.

Row | SMILES | anti-proliferative effect (dose-response curve shift) (H292 cells) | anti-proliferative effect (dose-response curve shift) (HCC827 cells) | anti-proliferative effect (dose-response curve shift) (PC9 cells) | anti-proliferative effect (dose-response curve shift) (SW480 cells) | anti-proliferative effect (dose-response curve shift) (PSN1 cells) | tumor growth (PC9 lung cancer tumors)
1 | COc1cc2c3cc1Oc1c(OC)c(OC)cc4c1[C@@H](Cc1ccc(O)c(c1)Oc1ccc(cc1)C[C@@H]3N(C)CC2)N(C)CC4 [berbamine, reference compound] | greatly enhanced | greatly enhanced |  |  |  | 
2 | COc1ccc2cc1Oc1ccc(cc1)C[C@H]1c3c(cc4c(c3Oc3cc5c(cc3OC)CCN(C)[C@@H]5C2)OCO4)CCN1C [cepharanthine, reference compound] | greatly enhanced |  | greatly enhanced | enhanced | greatly enhanced | 
3 | CCC(C)(C)C(=O)O[C@H]1C[C@@H](C)C=C2C=C[C@H](C)[C@H](CC[C@@H]3C[C@@H](O)CC(=O)O3)[C@H]21 [simvastatin] |  |  |  |  |  | decreased tumor growth
